# Results deposited as PubChem BioAssay AID686943 (Drosophila RNAi Screening Center, 2013).
# Purpose: 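Knockdowns that increase or decrease active ERK after insulin receptor stimulation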 (primary screen)
# Cells: Drosophila S2R+ haemocyte-like cells expressing YFP-tagged ERK (Rolled)
# Reagent: long dsRNA against Drosophila genes
# Treatment: insulin stimulation versus unstimulated cells; dose and duration not given
# Measured: 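Per-plate z-scores of phospho-ERK immunostaining normalised to YFP-tagged ERK, measured with and without insulin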
# Scale: replicate 1, z-score of dpERK with insulin and replicate 2, z-score of dpERK with insulin: higher = more active ERK per ERK-YFP after insulin; replicate 1, z-score of dpERK under basal conditions: higher = more basal active ERK per ERK-YFP; replicate 1, z-score of ERK-YFP with insulin: higher = more YFP-tagged ERK signal
# The screen tested about 23,000 reagents; below is an unselected part of those that have a named target and a result. 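Extra replicates exist only for a retested subset of genes; insulin dose and duration not given; both raised and lowered dpERK matter.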 Names joined by + are all predicted targets of the reagent. Not given: the amount of reagent, the time to read-out.
gene,dsRNA,"replicate 1, z-score of dpERK with insulin","replicate 2, z-score of dpERK with insulin","replicate 1, z-score of dpERK under basal conditions","replicate 1, z-score of ERK-YFP with insulin"
CG31998,DRSC17137,0.48,-0.32,-0.11,0.17
CG31998,DRSC17138,0.06,0.05,-0.12,-0.28
Crg-1 (Circadianly Regulated Gene),DRSC22882,0.6,0.49,1.52,-0.43
CG15548,DRSC15086,-0.08,-0.04,0.08,0.06
CG7715,DRSC16301,0.4,1.52,0.57,0.05
Raf (Raf oncogene),DRSC18821,-1.17,-3.84,-0.59,1
CG42299 + CG42300,DRSC19680,0.18,-0.95,0.55,0.06
CG42299 + CG42300,DRSC19815,0.27,-1.09,-0.7,0.64
CG11777,DRSC06081,-0.31,0.43,0.02,0.44
odd (odd skipped),DRSC00832,-5.46,-3.29,-3.33,-4.63
cdm (cadmus),DRSC16213,1.53,1.3,1.32,-3.24

A stretch of the results above, for reference:
gene,dsRNA,"replicate 1, z-score of dpERK with insulin","replicate 2, z-score of dpERK with insulin","replicate 1, z-score of dpERK under basal conditions","replicate 1, z-score of ERK-YFP with insulin"
Crg-1 (Circadianly Regulated Gene),DRSC22882,0.6,0.49,1.52,-0.43
CG15548,DRSC15086,-0.08,-0.04,0.08,0.06
CG7715,DRSC16301,0.4,1.52,0.57,0.05

The list goes on:
gene,dsRNA,"replicate 1, z-score of dpERK with insulin","replicate 2, z-score of dpERK with insulin","replicate 1, z-score of dpERK under basal conditions","replicate 1, z-score of ERK-YFP with insulin"
sing (singles bar),DRSC19530,-0.72,-0.2,0.59,0.85
CG14891,DRSC15013,-0.12,-0.31,-0.07,0.68
CG15529,DRSC15066,0.39,-0.19,-0.08,0.34
olf413,DRSC11543,-0.82,-1.58,-0.5,-0.12
olf413,DRSC11679,0.96,0.66,0.21,-0.47
olf413,DRSC11721,0.56,0.51,0.85,0.38
olf413,DRSC11833,0.15,-0.54,0.68,0.36
CG6479,DRSC10647,-1.2,-0.53,-0.2,0.94
Imp (IGF-II mRNA-binding protein),DRSC18857,1.42,0.46,2.01,0.62
Imp (IGF-II mRNA-binding protein),DRSC18861,0.84,0.27,0.48,0.84
Imp (IGF-II mRNA-binding protein),DRSC20255,-0.41,-0.58,-0.26,-0.41
Imp (IGF-II mRNA-binding protein),DRSC21907,0.41,-0.01,0.18,-0.76
